Measured values taken from publication PMC3229538, “Inhibition of G Protein-Activated Inwardly Rectifying K^+ Channels by Different Classes of Antidepressants” (PLoS ONE, 2011).
Structures can show the parent of a compound that is named as a salt.

Experiments:
GIRK1/2 channels = biological target: T1, GIRK1/2 channels (Mus musculus, UniProt P48542+P63250); experiment: Inhibition of basal GIRK currents, Xenopus oocyte expression assay, two-electrode voltage clamp; assay type: cell-based; settings: for EC50: basal GIRK currents, −70 mV, hK solution 96 mM K+; for IC50: concentration reducing basal GIRK currents by 50%
T1 construct: expressed in transfected cells; host or cells: Xenopus laevis oocytes injected with in vitro transcribed mRNA
T1 sequence (P63250 1-501): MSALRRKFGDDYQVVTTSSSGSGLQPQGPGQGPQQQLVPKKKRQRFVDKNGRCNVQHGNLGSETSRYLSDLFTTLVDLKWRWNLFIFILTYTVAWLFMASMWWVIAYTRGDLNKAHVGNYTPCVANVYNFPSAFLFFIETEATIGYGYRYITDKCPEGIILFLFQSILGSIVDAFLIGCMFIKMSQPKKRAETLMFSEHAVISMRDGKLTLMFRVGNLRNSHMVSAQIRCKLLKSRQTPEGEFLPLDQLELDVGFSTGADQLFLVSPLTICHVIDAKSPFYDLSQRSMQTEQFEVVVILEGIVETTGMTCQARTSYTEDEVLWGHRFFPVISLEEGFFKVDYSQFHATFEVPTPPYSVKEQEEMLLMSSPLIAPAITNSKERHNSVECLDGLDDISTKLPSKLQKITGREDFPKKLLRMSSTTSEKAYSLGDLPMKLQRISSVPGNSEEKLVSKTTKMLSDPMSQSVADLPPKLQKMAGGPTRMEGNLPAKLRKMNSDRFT
T1 sequence (P48542 1-425): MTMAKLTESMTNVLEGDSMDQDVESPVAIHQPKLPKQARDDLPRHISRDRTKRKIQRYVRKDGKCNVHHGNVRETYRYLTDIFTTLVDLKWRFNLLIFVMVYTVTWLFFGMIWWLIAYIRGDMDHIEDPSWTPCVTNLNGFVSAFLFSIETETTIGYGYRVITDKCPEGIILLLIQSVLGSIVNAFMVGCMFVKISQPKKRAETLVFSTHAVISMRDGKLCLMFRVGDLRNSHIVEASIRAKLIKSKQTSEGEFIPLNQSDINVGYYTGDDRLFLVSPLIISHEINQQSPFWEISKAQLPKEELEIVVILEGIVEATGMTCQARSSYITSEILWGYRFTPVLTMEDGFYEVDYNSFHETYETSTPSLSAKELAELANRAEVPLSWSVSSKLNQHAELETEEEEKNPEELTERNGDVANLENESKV
Protocol: (§1) Microelectrodes were filled with 3 M KCl. […] The data are expressed as mean ± SEM, and n is the number of oocytes tested. The statistical analysis of differences between groups was performed using paired t-test, one-way analysis of variance (ANOVA), or two-way ANOVA followed by the Tukey-Kramer post hoc test. Values of P<0.05 were considered statistically significant.

GIRK1/4 channels = biological target: T2, GIRK1/4 channels (Mus musculus, UniProt P48545+P63250); experiment: as above; assay type: cell-based; settings: for EC50: basal GIRK currents, −70 mV, hK solution 96 mM K+
T2 construct: expressed in transfected cells; host or cells: Xenopus laevis oocytes injected with in vitro transcribed mRNA
T2 sequence (P63250 1-501): T1 sequence (P63250 1-501)
T2 sequence (P48545 1-419): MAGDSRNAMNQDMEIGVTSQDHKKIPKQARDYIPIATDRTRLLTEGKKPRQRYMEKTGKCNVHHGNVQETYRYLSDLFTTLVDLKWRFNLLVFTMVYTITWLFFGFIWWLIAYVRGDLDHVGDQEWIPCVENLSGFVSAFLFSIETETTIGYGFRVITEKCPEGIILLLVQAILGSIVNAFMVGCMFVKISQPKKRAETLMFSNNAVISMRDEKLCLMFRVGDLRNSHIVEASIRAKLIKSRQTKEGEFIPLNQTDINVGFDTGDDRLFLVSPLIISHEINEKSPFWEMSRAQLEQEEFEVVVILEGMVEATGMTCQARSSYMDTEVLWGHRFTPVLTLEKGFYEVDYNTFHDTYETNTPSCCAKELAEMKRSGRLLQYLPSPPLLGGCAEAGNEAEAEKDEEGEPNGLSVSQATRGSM
Protocol: as §1

[1] = biological target: T3, GIRK1/2 channels activated by GTPγS (Mus musculus, UniProt P48542+P63250); experiment: Inhibition of total GIRK currents (GTPγS-induced and basal) in GTPγS-injected oocytes; assay type: cell-based
T3 construct: expressed in transfected cells; host or cells: Xenopus laevis oocytes injected with in vitro transcribed mRNA
T3 sequence (P63250 1-501): T1 sequence (P63250 1-501)
T3 sequence (P48542 1-425): T1 sequence (P48542 1-425)
Text: Microelectrodes were filled with 3 M KCl. […] GIRK channels are activated by various Gi/o-protein-coupled receptors through the direct action of G-protein βγ subunits released from the heterotrimeric G-protein complex, [33].

[2] = biological target: GIRK1/2 channels activated by ethanol (Mus musculus, UniProt P48542+P63250); experiment: cell-based

Clc1ccc2c(c1)C(N1CCNCC1)=Nc1ccccc1O2 [amoxapine, Amoxapine]
EC50 (GIRK1/2 channels): 38.7 ± 6.2 µM
IC50 (GIRK1/2 channels): 181 ± 48.3 µM
EC50 (GIRK1/4 channels): 17.7 ± 4.4 µM

CN[C@H]1CC[C@@H](c2ccc(Cl)c(Cl)c2)c2ccccc21 [sertraline, Sertraline hydrochloride]
IC50 [1]: 18.1 ± 3 µM
EC50 (GIRK1/2 channels): 11.7 ± 1 µM
IC50 (GIRK1/2 channels): 29.1 ± 3.4 µM
EC50 (GIRK1/4 channels): 12.6 ± 2.5 µM
IC50 (GIRK1/4 channels; concentration reducing basal GIRK currents by 50%): 36.7 ± 7.8 µM
IC50 [2]: 29.6 ± 5.5 µM
